Measurements taken from PubChem BioAssay AID1259354 (Paczesny and Yang Labs, IUPUI and University of Michigan, 2018).
Out of some 78,000 compounds screened, about 1,800 (2.3%) were called active. The shares of active, inactive and inconclusive entries below differ from those in the screen. Cut-off read from the data, not from the text of the source: active = inhibition above about 30%; inconclusive = mostly about 10% to 28%; inactive = weaker than that.

Chains of the proteins cited; added tags and fusions are not shown. Lines headed by an entry give the natural chain unless they say otherwise; changes in a name come on top.
UniProt Q01638: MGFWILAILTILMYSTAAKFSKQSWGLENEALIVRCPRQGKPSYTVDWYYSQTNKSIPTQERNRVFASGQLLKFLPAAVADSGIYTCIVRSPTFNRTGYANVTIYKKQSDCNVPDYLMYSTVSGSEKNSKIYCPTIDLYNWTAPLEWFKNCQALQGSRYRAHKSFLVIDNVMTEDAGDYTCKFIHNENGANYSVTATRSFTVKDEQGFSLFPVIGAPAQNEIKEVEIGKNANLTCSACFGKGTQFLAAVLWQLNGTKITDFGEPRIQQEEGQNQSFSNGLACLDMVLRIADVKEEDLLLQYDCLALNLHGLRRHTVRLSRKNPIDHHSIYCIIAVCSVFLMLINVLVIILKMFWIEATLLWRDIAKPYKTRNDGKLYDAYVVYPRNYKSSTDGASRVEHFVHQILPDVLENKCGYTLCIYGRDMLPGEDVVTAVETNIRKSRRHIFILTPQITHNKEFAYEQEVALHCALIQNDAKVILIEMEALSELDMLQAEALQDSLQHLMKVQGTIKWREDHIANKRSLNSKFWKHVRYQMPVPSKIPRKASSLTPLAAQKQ

These compounds were tested against Interleukin-1 receptor-like 1 (Homo sapiens) (UniProt Q01638) (assay: blocks human ST2 binding to IL-33, primary screen, biochemical, AlphaLISA (AID 1259354)). Details: AlphaLISA ST2-Fc/biotin-IL-33 interaction, 1 h; at 17 µM, hits give high values.

SMILES	inhibition
COc1cc(C2C3=C(CCCC3=O)Nc3ccc4ncccc4c32)ccc1OCc1ccccc1 (stereo not given)	inconclusive: 15%
COc1ccc(Cl)cc1NS(=O)(=O)c1cc(Cl)ccc1OC	inconclusive: 10%
Cn1c(=O)c2cc(S(=O)(=O)N3CCN(c4ccccc4F)CC3)ccc2n(C)c1=O	inactive
COc1ccc(Cl)cc1NC(=O)CCCn1nc(C)c([N+](=O)[O-])c1C	inactive
O=[N+]([O-])c1ccc(-c2cn3cc(Br)ccc3n2)cc1	active: 31%
Cc1ccccc1Cc1c(C)nc2nc(SCC(=O)N3CCOCC3)nn2c1C	inconclusive: 18%
COc1ccc(Cl)cc1C(=O)Nc1cccc(-c2nc3ncccc3o2)c1	inactive
Cc1cc(C(=O)NCCc2cnc[nH]2)c(NC(=O)C(C)(C)C)s1	inconclusive: 19%
Cc1ccc(S(=O)(=O)N(CCc2ccccc2)CC(=O)NC2CC2)cc1	inconclusive: 12%
O=C(O)CCC(=O)N1CCc2cc(S(=O)(=O)NCc3ccccc3Cl)ccc21	inconclusive: 17%
Cn1c(=O)[nH]c(=O)c2c1nc(Br)n2CCO	inconclusive: 10%
O=C(Nc1nnc(-c2ccc(F)cc2)o1)c1ccc(S(=O)(=O)N2CCCCCC2)cc1	inactive
CCN(CC)CCNC(=O)c1cc2cc(NC(C)=O)ccc2[nH]1	inconclusive: 16%
CN(C)c1ccc(CN2CC[C@H](c3nnc(-c4ccccc4)o3)C2)cc1	inconclusive: 17%
CCN(CC)CCn1nc2c3c(cccc3c1=O)-c1ccccc1-2	inconclusive: 27%
O=C(NCc1ccccc1)N1CC[C@H](c2nc3cc(Cl)ccc3o2)C1	inactive
CN1CCCN(Cc2ccc(N(C)C)cc2)CC1	inconclusive: 13%
CCCS(=O)(=O)c1c(S(=O)(=O)CCC)c2c(N)cccn2c1C(=O)c1ccccc1	inconclusive: 22%
CC1(C(=O)NCc2cccnc2)CCC(=O)N1CCc1ccc(Cl)cc1 (stereo not given)	inconclusive: 17%
Cc1c(Cl)cccc1Nc1nc(N)nc(CN2CCCCC2)n1	inconclusive: 10%

SMILES	inhibition
CC(C)Sc1oc(-c2cccs2)nc1S(=O)(=O)c1ccccc1	inactive
CC(=O)Nc1ccc2nc(CN3C[C@H]4CC=C(C)C[C@H]4C3)ccc2c1	inconclusive: 17%
COc1ccc(-c2nc3sc(-c4ccc(OC)c(OC)c4)nc3s2)cc1OC	inactive
CC12CC(NC(=O)N1c1ccc(Cl)cc1)c1cc(Br)ccc1O2 (stereo not given)	inactive
N.N.[Cl-].[Cl-].[Pt+4]	active: 77%
Cc1noc(C)c1-n1c(C2CCCN(C)C2)n[nH]c1=O (stereo not given)	inconclusive: 23%
Cc1nnc(Sc2cc(C(=O)NC3CCCCC3)c3ccccc3n2)s1	inconclusive: 20%
CCOc1ccccc1CN1CCC(N2CCCCC2)CC1	inactive
CCN(CC)C(=O)Cn1c(=O)n(CCCC(=O)NCc2ccco2)c(=O)c2sccc21	inconclusive: 14%
OCc1c(O)cnc2ccccc12	inactive
C=C(C)CN(CC)S(=O)(=O)c1ccc2[nH]cc(C(=O)O)c(=O)c2c1	inconclusive: 13%
COc1ccc2nc3oc(C(=O)N4CCN(c5ccc(F)cc5)CC4)cc3cc2c1	inactive
Cc1ccc([N+](=O)[O-])cc1N1C(=O)CC(Nc2ccc(N3CCOCC3)cc2)C1=O (stereo not given)	active: 52%
CCOCCOC(=O)C1=C(C)NC2=C(C(=O)C(C(=O)OC)C(C)C2)C1c1cccc(Cl)c1 (stereo not given)	inactive
O=C1CCCc2nn(-c3ccccc3)c(-c3ccc(F)cc3)c21	inconclusive: 24%
Cc1ccc(-c2cccc(C(=O)N3CCCC(Nc4ccc5c(c4)OCO5)C3)c2)o1 (stereo not given)	inconclusive: 21%
Cc1cnc(CN2CCC(Cc3nn(C)c(=O)n3-c3ccccc3)CC2)[nH]1	inconclusive: 19%
O=S(=O)(NC1CCCCC1n1cc(-c2ccccc2)nn1)c1ccc(Cl)cc1 (stereo not given)	inconclusive: 11%
COc1ccc(-c2cn3c4ccccc4nc3n2CCN2CCN(CCO)CC2)cc1	inconclusive: 14%
COc1ccc(-n2ncc3c(Nc4c(C)n(C)n(-c5ccccc5)c4=O)ncnc32)cc1	inconclusive: 12%

Structural class, the compounds so far containing two or more sulfur atoms
SMILES	inhibition
CCCS(=O)(=O)c1c(S(=O)(=O)CCC)c2c(N)cccn2c1C(=O)c1ccccc1	inconclusive: 22%
CC(C)Sc1oc(-c2cccs2)nc1S(=O)(=O)c1ccccc1	inactive
COc1ccc(-c2nc3sc(-c4ccc(OC)c(OC)c4)nc3s2)cc1OC	inactive
Cc1nnc(Sc2cc(C(=O)NC3CCCCC3)c3ccccc3n2)s1	inconclusive: 20%

The list goes on.

SMILES	inhibition
CCCN(CCC)S(=O)(=O)c1ccc(C(=O)Nc2nnc(-c3ccc(OC)cc3)o2)cc1	inconclusive: 29%
CN(C)C(=O)N1CCC(C(=O)NC2CC(=O)N(C3CCCCCC3)C2)CC1 (stereo not given)	inconclusive: 13%
N#CSC(CS(=O)(=O)c1ccc([N+](=O)[O-])cc1)c1ccccc1 (stereo not given)	inconclusive: 11%
O=C(Nc1cccc([N+](=O)[O-])c1)c1cccc(S(=O)(=O)N2CCCCC2)c1	inconclusive: 11%
CCn1cc(C2=NC(CCSC)CO2)c2ccccc21 (stereo not given)	inconclusive: 10%
COc1ccc(Cn2c(CNS(=O)(=O)c3ccc(C(C)(C)C)cc3)nc3cccnc32)cc1	inactive
CCCCNC(=O)C(C)Sc1nc2nc(C)cc(C)n2n1 (stereo not given)	inactive
CC1CCN(C(=O)c2cccn3c(=O)c4cc5ccccc5cc4nc23)CC1	inconclusive: 15%
Nc1nc(Oc2ccc(F)cc2)c(I)c(=O)[nH]1	inactive
CCn1c(C2CCCN(C(=O)COc3ccc4c(c3)OCO4)C2)n[nH]c1=O (stereo not given)	inactive
CCOc1cccc2sc(NC(=O)c3ccc(Cl)s3)nc12	inconclusive: 15%
CCc1ccc(NC(=O)Cn2c(=O)n(-c3ccc(F)cc3F)c(=O)c3sccc32)cc1	inactive
Cc1nc(N2CCC(NCC3OCCc4ccccc43)CC2)nc2cc(S(C)(=O)=O)ccc12 (stereo not given)	inactive
COc1ccccc1OCc1nc(C#N)c(N2CCCC2)o1	inconclusive: 26%
O=C1C(N2CCOCC2)=CC(=NS(=O)(=O)c2ccc(Cl)cc2)c2ccccc21	active: 71%
O=c1c2ccccc2nc(/C=C/c2ccc(Cl)cc2)n1CCO	inconclusive: 11%
Nc1ccc(-c2nnc(-c3ccc(N)cc3)o2)cc1	active: 37%
c1ccc(C2CCCN(Cc3nc(-c4cccs4)no3)CC2)cc1 (stereo not given)	inconclusive: 13%
COc1ccc(F)c(CN2CCCC3(CCN(C(=O)CCn4ccc(=O)[nH]c4=O)C3)C2)c1 (stereo not given)	inactive
Cc1nc(C(C)NC(=O)c2cc(CN(C)Cc3ccccc3)on2)n[nH]1 (stereo not given)	inconclusive: 17%
